Experimental data as given in publication doi:10.1101/2023.01.03.522557.
No constants are given. Whether binding was seen depends on the method and setting. In cells and extracts the contact can be indirect. A yes stands for co-enrichment or nearness to the bait. Other partners may have been found.

Chains of the proteins cited; added tags and fusions are not shown.
UniProt A2AG58: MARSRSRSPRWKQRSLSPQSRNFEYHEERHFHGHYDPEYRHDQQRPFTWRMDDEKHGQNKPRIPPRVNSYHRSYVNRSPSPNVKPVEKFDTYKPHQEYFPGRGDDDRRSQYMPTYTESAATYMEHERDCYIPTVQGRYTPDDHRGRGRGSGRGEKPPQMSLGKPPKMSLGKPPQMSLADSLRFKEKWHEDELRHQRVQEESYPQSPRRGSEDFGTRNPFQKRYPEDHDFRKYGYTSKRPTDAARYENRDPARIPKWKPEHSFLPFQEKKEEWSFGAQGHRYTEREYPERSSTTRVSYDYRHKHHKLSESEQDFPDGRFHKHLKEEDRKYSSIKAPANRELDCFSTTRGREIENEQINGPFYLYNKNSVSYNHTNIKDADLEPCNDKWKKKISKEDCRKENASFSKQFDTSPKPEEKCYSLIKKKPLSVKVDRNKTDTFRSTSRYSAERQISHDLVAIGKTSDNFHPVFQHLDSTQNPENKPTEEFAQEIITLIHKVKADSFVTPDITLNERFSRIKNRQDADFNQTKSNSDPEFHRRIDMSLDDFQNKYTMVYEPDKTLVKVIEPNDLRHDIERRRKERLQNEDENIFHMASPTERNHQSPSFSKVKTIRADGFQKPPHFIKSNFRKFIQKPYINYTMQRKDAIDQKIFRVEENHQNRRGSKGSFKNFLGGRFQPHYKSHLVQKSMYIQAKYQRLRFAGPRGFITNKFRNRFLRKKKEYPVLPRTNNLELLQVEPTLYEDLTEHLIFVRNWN
UniProt Q64012: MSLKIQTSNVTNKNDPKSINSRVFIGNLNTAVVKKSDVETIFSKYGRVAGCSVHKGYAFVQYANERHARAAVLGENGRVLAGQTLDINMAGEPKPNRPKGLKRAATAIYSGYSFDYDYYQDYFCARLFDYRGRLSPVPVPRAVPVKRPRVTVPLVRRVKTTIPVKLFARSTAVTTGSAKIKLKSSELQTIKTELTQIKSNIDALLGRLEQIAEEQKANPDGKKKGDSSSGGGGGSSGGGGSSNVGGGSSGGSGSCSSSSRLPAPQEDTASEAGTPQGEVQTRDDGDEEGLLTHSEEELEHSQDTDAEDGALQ
UniProt Q91VC3: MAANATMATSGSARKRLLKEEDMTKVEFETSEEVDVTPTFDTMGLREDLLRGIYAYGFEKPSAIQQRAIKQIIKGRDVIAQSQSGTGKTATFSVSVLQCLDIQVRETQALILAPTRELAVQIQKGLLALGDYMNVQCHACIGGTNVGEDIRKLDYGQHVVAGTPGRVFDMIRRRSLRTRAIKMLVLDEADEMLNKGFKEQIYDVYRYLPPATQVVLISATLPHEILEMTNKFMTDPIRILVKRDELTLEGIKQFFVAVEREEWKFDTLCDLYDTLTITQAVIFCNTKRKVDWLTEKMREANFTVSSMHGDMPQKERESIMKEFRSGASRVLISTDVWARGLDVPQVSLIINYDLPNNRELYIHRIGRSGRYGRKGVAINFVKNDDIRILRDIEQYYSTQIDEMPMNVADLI
UniProt Q9QX47: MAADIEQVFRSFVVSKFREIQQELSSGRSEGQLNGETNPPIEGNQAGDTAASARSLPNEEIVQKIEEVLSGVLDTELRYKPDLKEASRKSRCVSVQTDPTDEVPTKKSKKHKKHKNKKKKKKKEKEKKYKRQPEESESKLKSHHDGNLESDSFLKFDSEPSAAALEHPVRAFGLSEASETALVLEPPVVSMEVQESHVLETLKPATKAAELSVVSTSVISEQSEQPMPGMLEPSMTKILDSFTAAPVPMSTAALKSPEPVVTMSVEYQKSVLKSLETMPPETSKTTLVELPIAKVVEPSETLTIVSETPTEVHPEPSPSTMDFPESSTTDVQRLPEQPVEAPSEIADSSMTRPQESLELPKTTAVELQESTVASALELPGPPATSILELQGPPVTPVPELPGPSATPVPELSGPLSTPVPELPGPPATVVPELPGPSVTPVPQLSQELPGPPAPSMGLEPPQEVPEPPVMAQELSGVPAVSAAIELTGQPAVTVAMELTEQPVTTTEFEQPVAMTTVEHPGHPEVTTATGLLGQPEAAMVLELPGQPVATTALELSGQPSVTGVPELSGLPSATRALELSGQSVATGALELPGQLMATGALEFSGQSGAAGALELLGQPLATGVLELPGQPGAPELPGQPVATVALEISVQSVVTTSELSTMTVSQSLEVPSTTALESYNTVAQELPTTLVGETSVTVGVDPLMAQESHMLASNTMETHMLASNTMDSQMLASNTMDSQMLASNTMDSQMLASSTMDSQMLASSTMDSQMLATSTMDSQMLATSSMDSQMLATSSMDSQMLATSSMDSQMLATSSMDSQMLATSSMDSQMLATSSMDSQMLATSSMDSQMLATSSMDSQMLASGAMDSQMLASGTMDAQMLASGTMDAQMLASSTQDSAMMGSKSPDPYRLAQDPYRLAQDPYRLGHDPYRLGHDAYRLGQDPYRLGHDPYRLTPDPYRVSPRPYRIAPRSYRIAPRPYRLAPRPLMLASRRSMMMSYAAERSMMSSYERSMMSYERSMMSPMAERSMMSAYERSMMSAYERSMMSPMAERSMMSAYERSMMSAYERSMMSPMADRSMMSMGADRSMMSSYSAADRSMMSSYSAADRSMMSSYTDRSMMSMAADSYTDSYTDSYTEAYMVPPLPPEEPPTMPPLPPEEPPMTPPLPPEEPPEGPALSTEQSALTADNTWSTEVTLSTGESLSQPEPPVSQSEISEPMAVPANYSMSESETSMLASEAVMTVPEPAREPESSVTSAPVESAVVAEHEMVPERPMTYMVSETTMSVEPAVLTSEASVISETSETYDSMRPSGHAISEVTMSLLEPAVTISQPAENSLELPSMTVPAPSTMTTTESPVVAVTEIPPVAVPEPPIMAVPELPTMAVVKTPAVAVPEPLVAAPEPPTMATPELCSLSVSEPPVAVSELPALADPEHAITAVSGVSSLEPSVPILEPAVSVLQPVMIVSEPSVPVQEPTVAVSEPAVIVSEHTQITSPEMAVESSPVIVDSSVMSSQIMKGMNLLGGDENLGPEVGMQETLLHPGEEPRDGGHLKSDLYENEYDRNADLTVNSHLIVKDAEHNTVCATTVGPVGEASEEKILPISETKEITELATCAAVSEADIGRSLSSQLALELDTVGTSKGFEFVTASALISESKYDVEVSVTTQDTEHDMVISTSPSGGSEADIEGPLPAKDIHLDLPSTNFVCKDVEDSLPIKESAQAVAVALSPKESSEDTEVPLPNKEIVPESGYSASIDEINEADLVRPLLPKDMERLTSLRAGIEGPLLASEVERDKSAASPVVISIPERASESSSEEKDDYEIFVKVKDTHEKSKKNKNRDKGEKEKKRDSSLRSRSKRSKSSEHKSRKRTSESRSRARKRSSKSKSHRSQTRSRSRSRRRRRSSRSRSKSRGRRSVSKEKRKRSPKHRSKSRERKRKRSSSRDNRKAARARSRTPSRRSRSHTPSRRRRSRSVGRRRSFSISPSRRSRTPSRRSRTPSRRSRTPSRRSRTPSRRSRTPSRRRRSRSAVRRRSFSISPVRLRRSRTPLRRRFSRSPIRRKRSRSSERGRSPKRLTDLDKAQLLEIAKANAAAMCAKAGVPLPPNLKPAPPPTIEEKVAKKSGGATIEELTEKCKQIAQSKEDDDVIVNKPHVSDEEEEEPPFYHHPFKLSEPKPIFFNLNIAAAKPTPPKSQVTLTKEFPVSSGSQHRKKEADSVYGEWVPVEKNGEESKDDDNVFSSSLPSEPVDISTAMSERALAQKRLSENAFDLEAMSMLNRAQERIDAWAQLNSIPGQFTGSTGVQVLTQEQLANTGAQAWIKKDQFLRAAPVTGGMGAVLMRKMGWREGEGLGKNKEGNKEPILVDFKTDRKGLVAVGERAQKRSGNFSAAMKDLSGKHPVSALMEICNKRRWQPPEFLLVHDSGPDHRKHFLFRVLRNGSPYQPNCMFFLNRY

B1: hnRNP-F (protein, UniProt Q9Z2X1 1-415)
chain: MMLGPEGGEGYVVKLRGLPWSCSIEDVQNFLSDCTIHDGVAGVHFIYTREGRQSGEAFVELESEDDVKLALKKDRESMGHRYIEVFKSHRTEMDWVLKHSGPNSADSANDGFVRLRGLPFGCTKEEIVQFFSGLEIVPNGITLPVDPEGKITGEAFVQFASQELAEKALGKHKERIGHRYIEVFKSSQEEVRSYSDPPLKFMSVQRPGPYDRPGTARRYIGIVKQAGLDRMRSGAYSAGYGGYEEYSGLSDGYGFTTDLFGRDLSYCLSGMYDHRYGDSEFTVQSTTGHCVHMRGLPYKATENDIYNFFSPLNPVRVHIEIGPDGRVTGEADVEFATHEEAVAAMSKDRANMQHRYIELFLNSTTGASNGAYSSQVMQGMGVSAAQATYSGLESQSVSGCYGAGYSGQNSMGGYD

These molecules were tested against TOBF1-GFP (BAC tagged TOBF1-GFP mES cell line) (mouse) (UniProt A2AG58) (assay: affinity purification with mass spectrometry).

binding | Molecule
binds | hnRNP-K (from UniProt P61979 1-463)
binds | RALY (from UniProt Q64012 1-312)
binds | SRRM2 (from UniProt Q8BTI8 1-2703)
binds | EIF4A3 (from UniProt Q91VC3 1-411)
binds | SON (from UniProt Q9QX47 1-2444)
binds | B1
